Results deposited as PubChem BioAssay AID1259254 (NCATS, 2017).
Shown is one part, drawn at random, of about 59,000 reagents tested. About 1,550 of them (2.6%) were called active. 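G2 share is only a proxy for re-replication; each gene was hit by three separate siRNAs, and active genes were retested.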 The raw values are shown without normalisation. A number with no mark means an inactive call. The numbers tell different reagents against one gene apart. Reagent sequences are not shown. Not stated in the record: the amount of reagent.

Aim: 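Finding genes that stop cells copying their DNA twice in one cycle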 (primary screen)
Cells: human HCT116 colorectal cancer cells
Reagent: single siRNA against human genes
Time to read-out: 3 days
Measurement: 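Imaged Hoechst DNA stain sorts each cell into a cycle phase by DNA amount; per plate, G2 fraction set to 0% for non-targeting and 100% for GMNN siRNA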
Reading the numbers: G2 robust z-score and G2 cells, % of GMNN control: higher = more G2 cells, more excess DNA replication; raw share of cells in G2: higher = larger share of cells with G2 DNA content
Active means: 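An siRNA counts as active if its G2 robust z-score lies at least 5 MADs above the screen median; here such calls match roughly 38% of GMNN control or more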

no.	target gene	reagent	G2 robust z-score	G2 cells, % of GMNN control	raw share of cells in G2 (%)
1	LYVE1	1	7.22 (active)	53.8	26.1
2	LYVE1	2	-1.21	-5.55	1.84
3	LYVE1	3	-0.44	-0.129	3.13
4	SPACA6	1	-1.14	-5.04	2.11
5	SPACA6	2	1.95	16.7	8.85
6	SPACA6	3	-0.452	-0.214	3.1
7	PNMA5	1	1.24	11.7	8.77
8	PNMA5	2	1.66	14.6	7.69
9	PNMA5	3	-0.881	-3.23	0.875
10	LINC00668	1	-0.553	-0.92	4.41
11	LINC00668	2	1.63	14.4	9.05
12	LINC00668	3	-0.169	1.78	4.22
13	SERPINB12	1	-0.173	1.75	6.48
14	SERPINB12	2	-0.883	-3.24	3.58
15	SERPINB12	3	1.11	10.8	8.55
16	MYDGF	1	0.38	5.64	6.57
17	MYDGF	2	2	17	12.6
18	MYDGF	3	0.276	4.91	4.58
19	PBOV1	1	-0.00435	2.94	3.47
20	PBOV1	2	1.94	16.6	11.8
21	PBOV1	3	0.455	6.17	7.37
22	TNFSF15	1	0.0909	3.61	6.96
23	TNFSF15	2	1.4	12.8	9.3
24	TNFSF15	3	0.538	6.75	5.86

3 neighbouring records already listed, quoted:
no.	target gene	reagent	G2 robust z-score	G2 cells, % of GMNN control	raw share of cells in G2 (%)
17	MYDGF	2	2	17	12.6
18	MYDGF	3	0.276	4.91	4.58
19	PBOV1	1	-0.00435	2.94	3.47

The listing continues:
no.	target gene	reagent	G2 robust z-score	G2 cells, % of GMNN control	raw share of cells in G2 (%)
25	ESPNL	1	1.38	12.7	8.34
26	ESPNL	2	-0.168	1.79	4.04
27	ESPNL	3	-0.483	-0.429	4.02
28	GLRB	1	1.28	12	9.64
29	GLRB	2	-0.478	-0.396	4.65
30	GLRB	3	0.573	7	7.11
31	TRAF3	1	1.14	11	10.3
32	TRAF3	2	-0.365	0.4	4.61
33	TRAF3	3	0.121	3.82	5.68
34	SERF1B	1	0.0389	3.24	4.77
35	SERF1B	2	-0.8	-2.66	1.93
36	SERF1B	3	-0.574	-1.07	3.19
37	USH1C	1	1.02	10.2	8.88
38	USH1C	2	0.593	7.14	7.9
39	USH1C	3	-0.282	0.982	3.53
40	LINC01191	1	1.21	11.5	7.02
41	LINC01191	2	3.11	24.8	13.2
42	LINC01191	3	-0.643	-1.55	2.83
43	HDIP1	1	0.246	4.7	5.38
44	HDIP1	2	0.317	5.2	5.67
45	HDIP1	3	-0.696	-1.93	3.81
46	FAM169BP	1	0.941	9.59	7.14
47	FAM169BP	2	2.03	17.3	9.73
48	FAM169BP	3	0.532	6.71	5.31
